Measurements taken from patent US6716858B1, “Methods for inhibiting diabetic complications” (Kansas University Medical Center, priority 1995, dated 2004).

What was measured:
[1] = tested on: Sprague-Dawley rats, glomerular changes; type: in vivo, rat; details: 6 weeks; n = 4; average with standard error
Description: Male Sprague-Dawley rats (Sasco, 100 g) were used. After a 1 week adaptation period, rats were placed in metabolic cages to obtain a 24 hour urine specimen for 2 days before administration of injections. Rats were then divided into experimental and control groups and given tail vein injections with either saline, unmodified RSA (50 mg/kg), Amadori-RSA (50 mg/kg), NaBH4-reduced Amadori-RSA (50 mg/kg), or AGE-RSA (50 mg/kg).
Rats injected with Amadori-RSA and AGE-RSA were then either left untreated, or further treated by the administration of either aminoguanidine (AG; 25 mg/kg), pyridoxamine (PM; 25 mg/kg), or a combination of AG and PM (10 mg/kg each) through the drinking water. Body weight and water intake of the rats were monitored weekly in order to adjust dosages. At the conclusion of the experimental study the rats were placed in metabolic cages to obtain 24 hour urine specimen for 2 days prior to sacrificing the animals.
After perfusion with saline, kidney sections were fixed in ice-cold 10% neutral buffered formalin. Paraffin-embedded tissue sections from all rat groups (n=4 per group) were processed for staining with Harris' alum hematoxylin and eosin (H&E), perodic acid/Schiff reagent (PAS), and alcian blue (pH 1.0 and pH 2.5) stains for histological examination. The alcian blue sections were scored by two investigators in a blinded fashion.
Parrafin-embedded sections were deparaffinized and then blocked with 10% goat serum in PBS for 30 min at room temperature. […] The sections were then rinsed for 30 min with PBS in the dark, mounted in aqueous mounting media for immunocytochemistry (Biomeda), and cover slipped. Sections were scored in a blinded fashion. Kidney sections were evaluated by the number and intensity of glomerular staining in 5 regions around the periphery of the kidney. Scores were normalized for the immunofluorescent score per 100 glomeruli with a scoring system of 0-3.
All animals studies were carried out in conformance with institutional guidelines for animal research protocols. Male Sprague-Dawley 100 g rats (Sasco Co., Omaha Nebr.) were used in these studies. After a 1 week adaptation period, rats were placed in metabolic cages for 2 days to get two 24 hour urine specimens before starting treatment. Rats were then given daily single tail vein injections for 6 weeks according to the following treatment groups: saline, unmodified RSA (50 mg/kg), Amadori-RSA (50 mg/kg), NaBH4-reduced Amadori-RSA (50 mg/kg), and AGE-RSA (50 mg/kg). Groups of rats injected with Amadori-RSA or AGE-RSA were also administered aminoguanidine (25 mg/kg/day), pyridoxamine (25 mg/kg/day), a combination of the two (10 mg/kg/day each), or with nothing added to the drinking water. Body weight and water intake of the rat were monitored weekly in order to adjust dosages. At the conclusion of the study, the rats were placed in metabolic cages for two days to get two 24 hour urine specimens before sacrificing the animals.
Total protein in urine was determined by Bio-Rad assay. Albumin in urine was determined by competitive ELISA using rabbit anti-rat serum albumin (Cappell) as primary antibody (1:2000) and goat anti-rabbit IgG (Sigma) as a secondary antibody (1:2000). Urine was tested with Multistix 8 SG (Miles) for glucose, ketone, specific gravity, blood, pH, protein, nitrite and leukocytes. Creatinine measurements were performed with a Beckman creatinine analyzer II. Intracardiac blood samples were collected before termination and were used in the determination of creatinine clearance, blood glucose (glucose oxidase, Sigma), fructosamine (nitroblue tetrazolium, Sigma), and glycated Hb (Glycotest II analytical boronate columns, Pierce).
After perfusion with saline, kidney sections were fixed in ice-cold 10% neutral buffered formalin. […]

[2] = tested on: streptozotocin-induced diabetic rat; experiment: STZ diabetic rat model, AGEs and crosslinking of collagen; type: in vivo; details: diabetic rats, 1 g/L in drinking water
Description: Animal studies. Diabetes was induced by a single tail vein injection of 45 mg/kg of STZ in 0.1 M sodium citrate buffer, pH 4.5. Control animals were sham injected with buffer only. Diabetes was confirmed by measuring blood glucose levels at 2 and 3 days after the STZ-injection. Animals with plasma glucose higher than 16 mM were classified as diabetic. The diabetic rats were divided randomly into an untreated diabetic group (n=12) and two diabetic treatment groups, receiving either PM (n=13) or AG (n=12) at 1 g/L in drinking water. Two non-diabetic control groups were included, one receiving no treatment (n=13), the other receiving PM(HCl)2 at 2 g/L in drinking water (n=12); the higher dose of PM in the PM-treated control group was designed to compensate, in part, for the lower water intake of non-diabetic, compared to diabetic animals. […]
Glycemic control. Glycemia was monitored by measurement of plasma glucose and glycated hemoglobin every four weeks, using a Sigma Trinder assay Kit (Sigma # 315). […] The plate was shaken for 18 min and the absorbance at 490 nm was measured in a Wallac Victor 1420 multilabel counter (Wallac Inc. Gaithersburg, Md.). Glycated hemoglobin (GlcHb) was measured on whole blood by boronate affinity chromatography using a Sigma kit for total glycated hemoglobin (Sigma # 442-B). […]

Compound: RSA: purified rat serum albumin, unmodified
- Blood Glc [1]: 104 ± 15 g/dL
- Body Wt [1]: 358 ± 35 g
- Fructosamine [1]: 1.16 ± 0.12 mmol/L

Compound: Amadori-RSA: rat serum albumin incubated with 0.5 M ribose for 12 hours, then dialyzed; negative for antigenic AGEs
- Blood Glc [1]: 96 ± 10 g/dL
- Body Wt [1]: 362 ± 15 g
- Fructosamine [1]: 1.40 ± 0.31 mmol/L

Compound: N=C(N)NN [aminoguanidine, reference compound]
- glycemic control (mean plasma glucose, GlcHb) [2]: Neither PM nor AG had an effect on glycemic control in diabetic animals

Compound: Cc1ncc(CO)c(CN)c1O [pyridoxamine]
- Blood Glc [1]: 107 ± 8 g/dL
- Body Wt [1]: 340 ± 30 g
- Fructosamine [1]: 1.06 ± 0.07 mmol/L
- glycemic control (mean plasma glucose, GlcHb) [2]: Neither PM nor AG had an effect on glycemic control in diabetic animals

Compound: NaBH4-reduced: Amadori-RSA reduced with NaBH4
- Blood Glc [1]: 108 ± 13 g/dL
- Body Wt [1]: 363 ± 35 g
- Fructosamine [1]: 1.47 ± 0.18 mmol/L

Compound: AGE-RSA: Amadori-RSA re-incubated in the absence of sugar for 2-3 days at 37° C.
- Blood Glc [1]: 112 ± 7 g/dL
- Body Wt [1]: 323 ± 38 g
- Fructosamine [1]: 1.28 ± 0.18 mmol/L
